The results in this text go back to PMC9525694.

These are yes or no findings as the source states them, for the method shown. For some assays here: In cells and extracts the contact can be indirect. Some results given as binding are weak or reduced against the parent protein; the word gives no strength. For some assays here: Tags and fused reporters may be left off the sequences shown.

For assay [1], the target named is T1, voltage-dependent anion channel 2 (VDAC2) (human (endogenous in HeLa)), P45880.
T1 chain: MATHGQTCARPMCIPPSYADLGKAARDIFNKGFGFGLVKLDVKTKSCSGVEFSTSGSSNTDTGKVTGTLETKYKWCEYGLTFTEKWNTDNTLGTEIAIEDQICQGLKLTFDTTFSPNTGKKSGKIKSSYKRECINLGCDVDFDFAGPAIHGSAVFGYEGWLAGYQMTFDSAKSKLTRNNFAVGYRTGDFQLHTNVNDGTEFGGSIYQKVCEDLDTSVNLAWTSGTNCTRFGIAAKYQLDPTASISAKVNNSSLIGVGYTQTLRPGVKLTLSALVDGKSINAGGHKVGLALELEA
As to the kind of experiment: native gel or EMSA; BN-PAGE (6-16.5% gradient, 4 °C) of mitochondria from uninfected Bax-deficient HeLa cells without tBid, lysed in 1% digitonin; Western blot for Bak and VDAC. Particulars: remark: other sources report otherwise.

For assay [2], the target named is T2, Bak (human (endogenous in HeLa)), Q16611.
T2 chain: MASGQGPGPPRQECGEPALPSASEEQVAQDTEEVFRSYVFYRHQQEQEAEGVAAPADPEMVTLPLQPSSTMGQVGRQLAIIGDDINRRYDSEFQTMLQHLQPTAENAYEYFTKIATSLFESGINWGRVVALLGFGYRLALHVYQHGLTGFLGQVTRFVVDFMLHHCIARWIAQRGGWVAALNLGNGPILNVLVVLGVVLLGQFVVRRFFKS
In words: cross-linking; mitochondria isolated from HeLa cells (Bax-deficient, uninfected or Ctr-infected; GFP- or OmpA-expressing) treated with recombinant tBid; cysteine cross-linker BMH 0.5 mM, 30 min, room temperature; Western blot for Bak. The conditions noted are these: remark: other sources report otherwise.

B1: Bak, Q16611 1-211 (natural protein)
chain: MASGQGPGPPRQECGEPALPSASEEQVAQDTEEVFRSYVFYRHQQEQEAEGVAAPADPEMVTLPLQPSSTMGQVGRQLAIIGDDINRRYDSEFQTMLQHLQPTAENAYEYFTKIATSLFESGINWGRVVALLGFGYRLALHVYQHGLTGFLGQVTRFVVDFMLHHCIARWIAQRGGWVAALNLGNGPILNVLVVLGVVLLGQFVVRRFFKS
In the case of B1, the binding entry in assay [1] and in assay [2] was “binds” in each case.
